Laboratory results: PubChem BioAssay AID504804 (Drosophila RNAi Screening Center, 2011)

Purpose: 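Knock-downs shielding fly cells from apoptosis caused by DNA damage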 (primary screen)
Cell system: Drosophila Kc cells
Reagents: long dsRNA against Drosophila genes, 0.5 µg dsRNA per well
Time to read-out: 96 h (48 h knock-down, then 48 h drug)
Challenge: doxorubicin 5 µg/ml for 48 h, added 48 h after dsRNA
Detection: 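Viability measured as cellular ATP by luminescence after 48 h knock-down then 48 h doxorubicin at 5 µg/ml; unnormalised plate counts for each replicate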
Direction: raw ATP luminescence: higher = more viable cells, protection from doxorubicin
Hit rule: 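z-score of 2 or more over plate mean in both duplicates, retained only when retests and separate dsRNAs confirm the protection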
The deposit covers about 19,000 reagents; this is an unselected part of those that have a named target and a result. Of all reagents, 47 (0.25%) were called active. 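Signals are raw, not normalised; exact z-scores behind calls not deposited; actives needed confirmation, so some wells reaching 2 SD are inactive.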 Entries without a mark were called inactive. Reagents against one gene are numbered here. A plus sign joins genes that one reagent is predicted to hit. Reagent sequences are not shown.

no.	target	reagent no.	raw ATP luminescence, replicate 1	raw ATP luminescence, replicate 2
1	CG31528	1	70600	65353
2	CG33282	1	40523	37993
3	BEAF-32 + CG42254 (retired record)	1	66437	82717
4	Su(var)2-HP2	1	59837	44443
5	trp (transient receptor potential)	1	54350	43330
6	CG17778	1	51440	43430
7	Dr (Drop)	1	1.80e5	1.58e5
8	Peritrophin-15b	1	42253	76527
9	Gpo3 (Glycerophosphate oxidase 3)	1	78280	96717
10	Dys + snoRNA:Me18S-A1374	1	38260	45190
11	RanBPM (Ran-binding protein M)	1	44603	42820
12	CG13958 (retired record)	1	42740	43167
13	loqs (loquacious)	1	75130	64917
14	p23	1	54210	21543
15	Ufsp2 (UFM1 specific peptidase 2)	1	32730	26580
16	mRpS11 (mitochondrial ribosomal protein S11)	1	60840	71440
17	CG15141	1	89723	88933
18	CG15141	2	77427	67263
19	DCTN6-p27 (Dynactin 6, p27 subunit)	1	73927	66310
20	Mipp1 (Multiple inositol polyphosphate phosphatase 1)	1	28580	24133
21	bru1 (bruno 1)	1	1.02e5	90080
22	bru1 (bruno 1)	2	1.68e5	1.37e5
23	bru1 (bruno 1)	3	2.73e5	2.46e5
24	bru1 (bruno 1)	4	3.00e5	3.30e5
25	bru1 (bruno 1)	5	70840	57963

4 neighbouring records from above:
no.	target	reagent no.	raw ATP luminescence, replicate 1	raw ATP luminescence, replicate 2
11	RanBPM (Ran-binding protein M)	1	44603	42820
12	CG13958 (retired record)	1	42740	43167
13	loqs (loquacious)	1	75130	64917
14	p23	1	54210	21543

Further records follow.
no.	target	reagent no.	raw ATP luminescence, replicate 1	raw ATP luminescence, replicate 2
26	CG17824 (retired record)	1	75980	1.52e5
27	L2HGDH (L-2-hydroxyglutarate dehydrogenase)	1	1.08e5	83163
28	nolo (no long nerve cord)	1	66010	61807
29	nolo (no long nerve cord)	2	42827	31877
30	nolo (no long nerve cord)	3	32750	36860
31	GlcT (Glucosylceramide synthase)	1	76340	58453
32	CG31638	1	23253	21017
33	CG31638	2	22793	28503
34	CG4592	1	1.13e5	66703
35	beat-Ib (beaten path Ib)	1	69193	74677
36	CG13653	1	74740	99140
37	lbm (late bloomer)	1	45803	58773
38	CG42710	1	2.89e5	2.85e5
39	CG7730	1	24007	24697
40	Ldsdh1 (Lipid droplet subset dehydrogenase 1)	1	49600	48110
41	CG5191	1	58477	55957
42	CG5191	2	58520	64120
43	psd (palisade)	1	21653	40780
44	Unc-76 (Uncoordinated 76)	1	53800	58160
45	Unc-76 (Uncoordinated 76)	2	49780	49900
46	CG11658	1	83137	1.13e5
47	CG33221 (retired record)	1	2.09e5	2.42e5
48	MED14 (Mediator complex subunit 14)	1	43560	69477
49	Rab6	1	82947	53233
50	Rpp14b (Ribonuclease P/MRP subunit p14 b)	1	64780	63520
51	CG9541	1	43370	75363
52	hid (head involution defective)	1	35203	35800
53	CG13481	1	57573	50603
54	CG4815	1	59720	35410
55	CG33506	1	70060	71407
56	ATPsynE (ATP synthase, subunit E)	1	58487	34770
57	her (hermaphrodite)	1	86783	52743
